Measured values as given in PubChem BioAssay AID488835 (Broad Institute, 2010).
The campaign covered roughly 1,400 compounds. About 140 (10%) were called active.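 The calls were made as follows: active = Half-maximal inhibitory dose from the fit at or below ten times the top valid tested dose; inconclusive = Invalid fit, or flat curve showing 30 to 70% inhibition; inactive = the rest.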 The entries are a selection whose mix differs from that of the whole data set. Potency and affinity values are given separately.

Amino acid sequences for entries named in this document (tags omitted). Residues count along the entry.
UniProt Q9H3R0, 1-420 limits assumed: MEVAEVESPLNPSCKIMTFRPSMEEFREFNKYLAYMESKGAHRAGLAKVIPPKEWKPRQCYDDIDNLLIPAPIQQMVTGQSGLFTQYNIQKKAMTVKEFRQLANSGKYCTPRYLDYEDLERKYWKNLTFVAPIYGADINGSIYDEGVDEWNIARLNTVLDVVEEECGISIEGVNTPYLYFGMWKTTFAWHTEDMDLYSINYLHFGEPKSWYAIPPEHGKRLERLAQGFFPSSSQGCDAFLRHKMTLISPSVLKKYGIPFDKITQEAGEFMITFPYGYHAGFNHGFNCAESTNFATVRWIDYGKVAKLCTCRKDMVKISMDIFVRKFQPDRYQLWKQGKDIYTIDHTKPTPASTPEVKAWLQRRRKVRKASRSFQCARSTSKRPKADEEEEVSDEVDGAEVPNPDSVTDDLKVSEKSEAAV

Target: Lysine-specific demethylase 4C (Homo sapiens) (UniProt Q9H3R0)
Assay: inhibition of JMJD2C H3K9me3 demethylation – biochemical, DELFIA europium, cherry-picked samples, dose response (AID 488835);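 also: signal is the H3K9me2 demethylation product detected by a dimethyl-specific antibody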
Settings: GST-JMJD2C(1-420); at 6 µM (top of the series) unless noted

Activity change, negative = inhibition, inactive:
Cc1occc1-c1nnc(SCC(=O)c2cc3ccccc3oc2=O)o1 -0.848%
COc1ccc(OC)c(C2/C(=C(\O)c3ccc(OC)c(Cl)c3)C(=O)C(=O)N2CCN(C)C)c1 (centres undefined) -4.79%
Cc1cccc(NC(=O)CSc2cccc3cccnc23)c1 3.6%
O=C(Nc1ccccn1)c1ccc(C(=O)c2ccccc2)cc1 6.74%
COCCn1c(C(C)C)nc2sc3ccccc3c(=O)c2c1=O 5.81%
CCC(=O)N1CCc2cc(S(=O)(=O)CCC(=O)Nc3cccc(F)c3)ccc21 -1.52%
CCc1ccc(NC(=O)C/C(C)=N/NC(=O)COc2ccc(C)cc2Br)cc1 1.72%
Cc1ccccc1NC(=O)C1CC(=O)OC12CCOC(C)(C)C2 (centres undefined) 3.41%
Cc1ccc(C(=O)Oc2csc(=S)n2C(=O)c2ccc(C)cc2)cc1 14.2%
O=c1cnnc(Nc2ccccc2)[nH]1 4.31%
COc1ccc(CN2CCNC(=O)C2CC(=O)NCc2csc(C(C)C)n2)c(OC)c1 (centres undefined) -5.09%
COc1ccc(CCNCCN2CCOCC2)cc1 -10.6%
CCc1ccc(CCC(=O)Nc2sc3c(c2C#N)CCCC3)o1 -0.132%
COc1ccc2cc(Br)ccc2c1CC(=O)NCCCN1CCOCC1 7.11%
CC(=O)c1nnn(-c2nc(N3CCCC3)nc(N(c3ccccc3)c3ccccc3)n2)c1C -0.754%
O=C(NC1CCCCC1)NC1C2CC3CC(C2)CC1C3 (centres undefined) 3.19% [at 1.6 µM]
COc1ccc(C2CC(=O)C=C(NNS(=O)(=O)c3ccc(C)cc3)C2)cc1 (centres undefined) 0.334%
CCC(=O)Nc1ccc(NC(=O)Cc2ccccc2)cn1 -1.91% [at 1.6 µM]
Cc1cc(C(F)(F)F)nn1C(=O)c1cccnc1Cl -8.2%
CC(=O)Nc1ccc2nc(CN3CCC(CO)(CCc4ccccc4)CC3)ccc2c1 -2.53%
COc1ccccc1CNC(=O)c1cc(-c2ccccc2)nn1CC1CC(c2cccnc2)=NO1 (centres undefined) -1.26%
Cc1cccc(N2C(=O)C3C4C=CC(C4)C3C2=O)c1 (centres undefined) 9.08%
CN(C)/C=C1\C(=O)NN=C1c1ccccc1 -4.71%
O=C(Cn1cnc2c(OCc3ccccc3)ncnc21)NCCN1CCOCC1 -2.74%
CC[C@@]1(C(=O)OC)N[C@H](CN(C)C(=O)Nc2ccc(Cl)cc2)[C@@H]2C(=O)N(Cc3ccccc3)C(=O)[C@@H]21 2.99%
CCn1c(SCC(=O)c2ccc(C)cc2)nnc1-c1ccoc1C 3.07%
O=C(Nc1ccccc1N1CCCCC1)c1cccc(F)c1 -3.69%
CN(C)CCN(C(=O)/C=C/c1cccs1)c1nc2ccc(F)cc2s1 5.54%
CCOc1ccc(NC(=O)NC(=O)N(C(C)C)S(C)(=O)=O)cc1 -0.645%
CCO[C@@H]1OC(C(=O)NC2CC2)=C[C@H](c2c[nH]c3ccccc23)[C@H]1CCCO -4.07%
CCCCC(=O)Nc1ccccc1N1CCN(c2ccc(F)cc2)CC1 -2.31%
CCn1c(=O)c(C(=O)NCCc2ccc(Cl)cc2)c(O)c2ccccc21 -3.1%
CC1CCCC(NC(=O)COC(=O)c2ccc(N(C)C)cc2)C1C (centres undefined) 4.96%
CN(C)/C=C1/Nc2ccccc2C1=O 5.13%
C[C@H](CO)N1C[C@H](C)[C@@H](CN(C)Cc2ccc(Cl)c(Cl)c2)Oc2c(NC(=O)c3ccncc3)cccc2C1=O -4.99%
O=C(CN1C(=O)NC2(CCCC2)C1=O)Nc1nc(-c2ccccc2)cs1 -9.35%
COC(=O)c1cc(S(=O)(=O)N2CCN(c3ccc(F)cc3)CC2)c[nH]1 4.97%
Cc1[nH]n(-c2ccccc2)c(=O)c1N=Nc1nccs1 -6.11%
Fc1ccc(NC(=S)Nc2ccc(Cl)cc2Cl)cc1 -3.58%
N#Cc1cnn(CC2CCCCC2)c1N 6%
O=C(c1cc2ccccc2oc1=O)N1CCN(CCc2ccccc2)CC1 -7.89%
O=c1c2c(nc3c(-c4cccc5ccccc45)c[nH]n13)CCC2 5.22%
CCSCC1COC(c2cccn2Cc2ccc(C)cc2)=N1 (centres undefined) 3.44%
COCCn1c(N)c(C(=O)NCC2CCCO2)c2nc3ccccc3nc21 (centres undefined) -0.291%
COc1ccc(S(=O)(=O)N(C)C[C@H]2Oc3ccc(NS(=O)(=O)c4cccs4)cc3CC(=O)N([C@H](C)CO)C[C@H]2C)cc1 2.24%
Cc1cccn2c(=O)c(C(=O)NC3CC(C)CC(C)(C)C3)c(O)nc12 (centres undefined) -4.7%
N#Cc1cnc(NOCc2ccc(Cl)cc2)nc1 9.12%
Cc1ccc(S(=O)(=O)N2CCN(C(=O)N3CCOCC3)CC2)cc1C 6.26%
C=CCn1c(N)c(-c2nc3ccccc3n2C)sc1=S -2.32%
CCNC(=S)NC(=NCc1cccnc1)Nc1nc(C)cc(C)n1 -0.344%
Cc1cc(C)cc(C(=O)N2CCC(C(N)=O)CC2)c1 3.06%
COc1ccc2c(c1)CC(C1(O)C(=O)N(C)c3ccccc31)C2=O (centres undefined) 1.43%
COc1ccc(N2CCN(C(=O)CSc3nnc(-c4ccco4)n3C)CC2)cc1 4.94%
COc1ccc(NC(=O)C2OC3OC(C)(C)OC3C3OC(C)(C)OC23)cc1 (centres undefined) -6.23%
COc1cc(CN2CCN(C(=O)CC(C)C)CC2)cc(OC)c1OC -3.19%
CC(=O)N1C(c2ccccc2O)C[C@]2(C)CC(=O)NC12 (some centres undefined) -1.35%
Cc1ccc(C(O)(C(=O)NNc2ccccn2)c2ccc(C)cc2)cc1 0.26%
CC1CN(Cc2ccccc2)c2nc3c(c(=O)n(C)c(=O)n3C)n2C1 (centres undefined) 4.53%
CN(C)CCNC(=O)c1onc(CSc2ccncc2)c1C(=O)NCCN(C)C -0.433%
COc1ccccc1/C=C1\SC(=S)N(CCC(=O)NNC(=O)c2ccccc2OC)C1=O -3.17%
CN(C(=O)c1ccc(NC(=O)Cc2ccc(NC(=O)C3CCN(C(=O)C4CCC4)CC3)cc2)cc1)C1CC1 -3.69%
NC(=O)COC(=O)Cc1coc2cc3c(cc12)CCC3 -0.0989%
CCN(Cc1nc(-c2ccccc2)no1)C(=O)c1ccco1 9.74%
Cc1ccc(S(=O)(=O)NC(=O)NC(C)Cc2ccccc2)cc1 (centres undefined) 0.87%
Cc1cccc(C(=O)NCC(c2ccco2)N2CCc3ccccc32)c1 (centres undefined) 4.14%
Cc1noc(C)c1COc1ccc(C(=O)NCC2CCCO2)cc1 (centres undefined) 6.29%
Cc1nnc(SCc2nnc(-c3ccccc3)o2)n(N)c1=O -1.28%
CCC(C)[C@H](NC(=O)NCc1ccccc1Cl)C(=O)O (some centres undefined) -2.17%
Cc1nc2ccc(NC(=O)c3oc4ccc(F)cc4c3C)cc2s1 -3.77%
CN(C)/C=N/c1sccc1C(N)=O 1.63%
Cc1ccccc1N=C1N=C(N)c2ccccc21 -0.0737%
C/C(CC(=O)Nc1cccc(Cl)c1Cl)=N\NC(=O)c1ccccc1N -1.55%
CCN(CC)c1ccc(C(=O)OCC(=O)N2CCCC2)cc1 8.43%
O=C(c1cc2c(s1)CCC2)N1C(=O)c2ccccc2S1(=O)=O 2.58%
COc1ccc(/C=N/Nc2ncnc(Cl)c2N)cc1OC -1.24%
C[C@@H]1CN([C@H](C)CO)C(=O)c2cc(NC(=O)Cc3ccccc3)ccc2O[C@H]1CN(C)Cc1ccc(Oc2ccccc2)cc1 4.38%
COc1cc(N)c(C(O)c2nccc3cc(OC)c(OC)cc23)cc1OC (centres undefined) 2.3%
O=C(C1CCCCC1)N1CCC(c2nc3c(nnn3Cc3c(F)cccc3Cl)c(=O)[nH]2)CC1 1.1%
C/C(=N\N1CCN(c2ccccc2)CC1)c1ccncc1 -0.735%
CC(SCc1ccccc1)C(=O)Nc1ccccc1 (centres undefined) -3.98%
CC1=C(C(=O)OCC2CCCO2)C(c2ccccc2OC(C)C)C2=C(CC(c3ccco3)CC2=O)N1 (centres undefined) 2.87% [at 1.6 µM]
Cc1cnc(NC(=O)c2ccc(-c3nc4ccccc4s3)o2)s1 -1.09%
Cc1cccc2cc(C#N)c(SCCN3CCCCC3)nc12 6.01%
OC(COc1ccc2ccccc2c1Br)Cn1cnc(-c2ccccc2)c1 (centres undefined) -3.27%
COc1ccc(CCNC(=O)COC(=O)c2ccc(Br)o2)cc1 1.54%
O=C(O)c1ccccc1OCCOc1ccccc1C(=O)O 11.2%
CCC/C(=N\NC(=O)c1csc(C)c1C)c1cccs1 8.49%
O=C(Nc1ccccc1)Nc1ccc(S(=O)(=O)N2CCCCC2)cc1 -7.48%
CCCCn1c(N)c(N(CC)C(=O)c2ccco2)c(=O)[nH]c1=O -4.81%
CCCc1c(NC(=O)Nc2ccc(F)cc2)cnn1-c1ccccc1 7.81%
C#CC[N+]1(CC#Cc2ccc(C#CC[N+]3(CC#C)CCOCC3)cc2)CCOCC1 -11%
N#Cc1cc(-c2ccccc2)nnc1Sc1ccccc1 -0.418%
CCCCC(=O)NC(Nc1nc(C2CC2)cs1)(C(=O)OCC)C(F)(F)F (centres undefined) -1.23%
COC(=O)[C@]1(C)N[C@H](CN(C)S(=O)(=O)c2ccc(F)cc2)[C@@H]2C(=O)N(C)C(=O)[C@@H]21 2.62%

In the list so far, 4 have bromine.
Activity change, negative = inhibition, inactive:
CCc1ccc(NC(=O)C/C(C)=N/NC(=O)COc2ccc(C)cc2Br)cc1 1.72%
COc1ccc2cc(Br)ccc2c1CC(=O)NCCCN1CCOCC1 7.11%
OC(COc1ccc2ccccc2c1Br)Cn1cnc(-c2ccccc2)c1 (centres undefined) -3.27%
COc1ccc(CCNC(=O)COC(=O)c2ccc(Br)o2)cc1 1.54%

Three entries drawn at random from the list so far, as already listed:
Activity change, negative = inhibition, inactive:
COc1ccc2cc(Br)ccc2c1CC(=O)NCCCN1CCOCC1 7.11%
CCO[C@@H]1OC(C(=O)NC2CC2)=C[C@H](c2c[nH]c3ccccc23)[C@H]1CCCO -4.07%
CCN(CC)c1ccc(C(=O)OCC(=O)N2CCCC2)cc1 8.43%
